Laboratory results from PMC10041115, “Cryo-EM structure of the four-subunit Rhodobacter sphaeroides cytochrome bc1 complex in styrene maleic acid nanodiscs” (Proceedings of the National Academy of Sciences of the …, 2023).
These are yes or no findings as the source states them, for the method shown. Binding calls can cover weak binding; strength is not graded here. For some assays here: Where a sequence is shown, tags or fusion partners need not be part of it.

Amino acid sequences for entries named in this document (tags omitted). A change or cut given only in a name is not applied to a line headed by its entry.
UniProt Q3J2Z2: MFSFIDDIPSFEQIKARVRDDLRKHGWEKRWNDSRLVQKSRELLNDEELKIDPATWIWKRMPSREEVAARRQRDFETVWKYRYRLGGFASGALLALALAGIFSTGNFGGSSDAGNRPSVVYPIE

Legend:
[1] = molecular target: T1, cytochrome c1 subunit of the Rhodobacter sphaeroides cytochrome bc1 complex, His10-tagged (Rhodobacter sphaeroides) (UniProt Q02760); assay: cryo-EM structure; purified four-subunit cyt bc1 in SMA native lipid nanodiscs, no inhibitors added, 20 mM Tris-HCl pH 8, 200 mM NaCl; C1 consensus map at 2.9 Å and a focused class at 3.75 Å (FSC 0.5); both purified
T1 sequence: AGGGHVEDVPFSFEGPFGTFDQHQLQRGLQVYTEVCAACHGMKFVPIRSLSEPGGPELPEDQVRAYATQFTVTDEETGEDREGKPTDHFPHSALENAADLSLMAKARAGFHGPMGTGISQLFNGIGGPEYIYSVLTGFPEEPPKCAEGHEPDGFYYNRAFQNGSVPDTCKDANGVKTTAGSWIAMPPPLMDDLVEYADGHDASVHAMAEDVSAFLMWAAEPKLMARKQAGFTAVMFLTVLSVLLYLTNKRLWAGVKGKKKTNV

[2] = molecular target: T2, Rieske iron-sulfur protein subunit of the Rhodobacter sphaeroides cytochrome bc1 complex (Rhodobacter sphaeroides) (UniProt Q02762); assay: as above
T2 sequence: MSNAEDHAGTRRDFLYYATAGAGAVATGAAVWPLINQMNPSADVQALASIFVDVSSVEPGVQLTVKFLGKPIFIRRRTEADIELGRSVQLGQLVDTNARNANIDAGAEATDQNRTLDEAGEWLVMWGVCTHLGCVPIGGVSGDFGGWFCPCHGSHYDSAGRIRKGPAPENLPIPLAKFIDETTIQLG

binding [1]: binds
binding [2]: binds
Substance: subunit IV of the Rhodobacter sphaeroides cytochrome bc1 complex (from UniProt Q3J2Z2)
